# Source: paper PMC8384837
# Positions count from the first letter of the chain named. This is one part of the list. For some assays here: At the low end of the ranking the order means little.
# Tests used:
# Settings in all cases: yeast three-hybrid, YBZ-1, SC-Leu-His + 0.5 mM 3-AT, 4 days
# [1] = target: T1, PUM1 PUF domain R1-TGR S863T + R864G + Q867R (UniProt Q14671)
# T1 sequence: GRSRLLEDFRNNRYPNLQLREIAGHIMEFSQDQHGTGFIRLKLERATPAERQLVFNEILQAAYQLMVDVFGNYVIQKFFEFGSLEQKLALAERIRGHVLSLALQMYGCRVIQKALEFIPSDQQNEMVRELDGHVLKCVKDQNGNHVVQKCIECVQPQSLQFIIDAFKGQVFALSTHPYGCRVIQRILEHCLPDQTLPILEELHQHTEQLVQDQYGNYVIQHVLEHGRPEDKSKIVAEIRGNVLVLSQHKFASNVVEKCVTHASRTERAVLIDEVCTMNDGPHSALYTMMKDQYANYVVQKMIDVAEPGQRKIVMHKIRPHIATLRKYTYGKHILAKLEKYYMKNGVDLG
# [2] = target: T2, PUM1 PUF domain R1-TLR S863T + R864L + Q867R (UniProt Q14671)
# T2 sequence: T1 sequence with G37L
# [3] = target: T3, PUM1 PUF domain R1-TSR S863T + R864S + Q867R (UniProt Q14671)
# T3 sequence: T1 sequence with G37S
# [4] = target: T4, PUM1 PUF domain R1-TVR S863T + R864V + Q867R (UniProt Q14671)
# T4 sequence: T1 sequence with G37V
# [5] = target: T5, PUM1 PUF domain R1-TWR S863T + R864W + Q867R (Homo sapiens) (UniProt Q14671)
# T5 sequence: T1 sequence with G37W
# [6] = target: T6, PUM1 PUF domain R1-VFR S863V + R864F + Q867R (Homo sapiens) (UniProt Q14671)
# T6 sequence: T1 sequence with T36V, G37F
# [7] = target: T7, PUM1 PUF domain R1-VRR S863V + Q867R (Homo sapiens) (UniProt Q14671)
# T7 sequence: T1 sequence with T36V, G37R
# [8] = target: T8, PUM1 PUF domain R1-VWK S863V + R864W + Q867K (Homo sapiens) (UniProt Q14671)
# T8 sequence: T1 sequence with T36V, G37W, R40K
# [9] = target: T9, PUM1 PUF domain R1-VWR S863V + R864W + Q867R (Homo sapiens) (UniProt Q14671)
# T9 sequence: T1 sequence with T36V, G37W
# [10] = target: T10, PUM1 PUF domain R1-YSR S863Y + R864S + Q867R (UniProt Q14671)
# T10 sequence: T1 sequence with T36Y, G37S
# [11] = target: T11, PUM1 PUF domain R1-YWR S863Y + R864W + Q867R (Homo sapiens) (UniProt Q14671)
# T11 sequence: T1 sequence with T36Y, G37W
# [12] = target: T12, PUM1 PUF domain R1-TVE S863T + R864V + Q867E (Homo sapiens) (UniProt Q14671)
# T12 sequence: T1 sequence with G37V, R40E
# [13] = target: T13, PUM1 PUF domain R1-VTW S863V + R864T + Q867W (UniProt Q14671)
# T13 sequence: T1 sequence with T36V, G37T, R40W
# [14] = target: T14, PUM1 PUF domain R1-TMR S863T + R864M + Q867R (Homo sapiens) (UniProt Q14671)
# T14 sequence: T1 sequence with G37M
# [15] = target: T15, PUM1 PUF domain R1-TVR S863T + R864V + Q867R (Homo sapiens) (UniProt Q14671)
# T15 sequence: T1 sequence with G37V
# [16] = target: T16, PUM1 PUF domain R1-VYR S863V + R864Y + Q867R (Homo sapiens) (UniProt Q14671)
# T16 sequence: T1 sequence with T36V, G37Y
# [17] = target: T17, PUM1 PUF domain R2-AFW N899A + Y900F + Q903W (UniProt Q14671)
# T17 sequence: T1 sequence with T36S, G37R, R40Q, N72A, Y73F, Q76W
# [18] = target: T18, PUM1 PUF domain R2-AKP N899A + Y900K + Q903P (UniProt Q14671)
# T18 sequence: T1 sequence with T36S, G37R, R40Q, N72A, Y73K, Q76P
# [19] = target: T19, PUM1 PUF domain R2-ARP N899A + Y900R + Q903P (UniProt Q14671)
# T19 sequence: T1 sequence with T36S, G37R, R40Q, N72A, Y73R, Q76P
# [20] = target: T20, PUM1 PUF domain R2-AWD N899A + Y900W + Q903D (UniProt Q14671)
# T20 sequence: T1 sequence with T36S, G37R, R40Q, N72A, Y73W, Q76D
sequence,measurement,setting,value
GGCUAGAACUAGUGGAUCCCCCGGCGCCCGGCGGCUCGAGCCCGGGUAAGUGUAAAUGGUCUGCAUGCCGCCGGGCGCCAUGCCUGCAGGUCGACUCUAGAAAACAUG,binding signal (log2 enrichment (interaction score)),[1],-2.2
same,binding signal (log2 enrichment (interaction score)),[2],-3.21
same,binding signal (log2 enrichment (interaction score)),[3],-3.45
same,binding signal (log2 enrichment (interaction score)),[4],-2.43
same,binding signal (log2 enrichment (interaction score)),[5],-0.22
same,binding signal (log2 enrichment (interaction score)),[6],-0.96
same,binding signal (log2 enrichment (interaction score)),[7],-0.73
same,binding signal (log2 enrichment (interaction score)),[8],-1.5
same,binding signal (log2 enrichment (interaction score)),[9],-0.47
same,binding signal (log2 enrichment (interaction score)),[10],-6.36
same,binding signal (log2 enrichment (interaction score)),[11],0.26
GGCUAGAACUAGUGGAUCCCCCGGCGCCCGGCGGCUCGAGCCCGGGUAAGUGUAAAUCGUCUGCAUGCCGCCGGGCGCCAUGCCUGCAGGUCGACUCUAGAAAACAUG,binding signal (log2 enrichment (interaction score)),[12],-1.16
same,binding signal (log2 enrichment (interaction score)),[13],< -7.47
GGCUAGAACUAGUGGAUCCCCCGGCGCCCGGCGGCUCGAGCCCGGGUAAGUGUAAAUUGUCUGCAUGCCGCCGGGCGCCAUGCCUGCAGGUCGACUCUAGAAAACAUG,binding signal (log2 enrichment (interaction score)),[14],-0.47
same,binding signal (log2 enrichment (interaction score)),[15],0.13
same,binding signal (log2 enrichment (interaction score)),[16],0.09
GGCUAGAACUAGUGGAUCCCCCGGCGCCCGGCGGCUCGAGCCCGGGUAAGUGUAAAUAGUCUGCAUGCCGCCGGGCGCCAUGCCUGCAGGUCGACUCUAGAAAACAUG,binding signal (log2 enrichment (interaction score)),[17],< -8.19
same,binding signal (log2 enrichment (interaction score)),[18],< -8
same,binding signal (log2 enrichment (interaction score)),[19],< -8.68
same,binding signal (log2 enrichment (interaction score)),[20],< -6.16

# Looked up one by one from above (2):
sequence,measurement,setting,value
GGCUAGAACUAGUGGAUCCCCCGGCGCCCGGCGGCUCGAGCCCGGGUAAGUGUAAAUGGUCUGCAUGCCGCCGGGCGCCAUGCCUGCAGGUCGACUCUAGAAAACAUG,binding signal (log2 enrichment (interaction score)),[3],-3.45
same,binding signal (log2 enrichment (interaction score)),[8],-1.5
